Measurements: PubChem BioAssay AID540276 (National Center for Advancing Translational Sciences (NCATS), 2011)
The campaign covered roughly 300,000 compounds. About 5,400 (1.8%) were called active. This list was built around the results that the source calls inconclusive (neither active nor inactive); the mix of calls is not that of the screen. The call rests on the fitted dose curve; tested in HEK293 cells. Potencies of inconclusive entries are doubtful fits and often do not repeat.

Test: qHTS for inhibitors of binding or entry into cells for Marburg Virus
Conditions: Marburg virus pseudotyped entry inhibition, cell reporter; activity change, negative = inhibition: at 37.8 µM (top of the series) unless noted
On the % scale 0 is the no-effect control and ±100 the full control effect; potency means the concentration at half of the fitted maximal effect.

Question: For O=C(CSc1nc2ccccc2s1)NCCOc1ccccc1, which Potency is on record?
Answer: inconclusive: 6.31 µM [activator, partial curve, poor fit]

Question: Which Potency does the source give for Fc1ccc(-c2[nH]ncc2CN(CC2CCC2)CC2CCCO2)c(F)c1 (centres undefined) here?
Answer: inconclusive: 35.5 µM [inhibitor, partial curve, poor fit]

Question: With CCCC[C@@H]1CN2[C@H](c3ccc(Br)cc3)[C@@H](C)CC[C@H]2C(=O)O1 as the compound, how does the Potency read?
Answer: inconclusive: 0.0335 µM [activator, full curve, poor fit]

Question: Which Potency does the source give for CC(C)CC(=O)NC(=S)Nc1ccccc1C(=O)Nc1ccccc1 here?
Answer: inconclusive: 7.3 µM [activator, partial curve, poor fit]

Question: For CCOc1ccc(C2C(C#N)=C(C)NC3=C2C(=O)c2ccccc23)cc1 (centres undefined), which Potency is on record?
Answer: inconclusive: 3.66 µM [inhibitor, full curve]

Question: Which Potency does the source give for Cc1noc(C)c1S(=O)(=O)N(CC(=O)NCCc1ccc(Cl)cc1)c1ccc(C(C)C)cc1 here?
Answer: inconclusive: 0.794 µM [inhibitor, full curve, poor fit]

Question: With COc1ccc(C=O)cc1Cn1c(=O)n(CCC(=O)NCc2ccco2)c(=O)c2sccc21 as the compound, how does the “activity change, negative = inhibition” value read?
Answer: inactive: 2.99% [at 46.1 µM]

Question: Which Potency does the source give for CN(C)C(CNS(=O)(=O)c1ccc(Br)cc1)c1cccnc1 (centres undefined) here?
Answer: inconclusive: 0.58 µM [activator, full curve, poor fit]

Question: For CN1C(=O)C(O)(CC(=O)/C=C/c2ccco2)c2cc(Br)ccc21 (centres undefined), which Potency is on record?
Answer: inconclusive: 29.1 µM [inhibitor, single point]

Question: Which Potency does the source give for O=C(/C=C/c1ccncc1)c1ccc2c(c1)OCCO2 here?
Answer: active: 14.1 µM

Question: Which Potency does the source give for COc1cccc(-c2oc3ccc(C)cc3c(=O)c2O)c1 here?
Answer: inconclusive: 5.01 µM [activator, full curve]

Question: With O=C(Nc1nc2ccccc2[nH]1)C1CCC1 as the compound, how does the Potency read?
Answer: inconclusive: 35.5 µM [inhibitor, single point]

Question: For CC1(C)CC(NC(=O)c2ccc(Cl)c(S(=O)(=O)N(Cc3ccccc3)c3ccccc3)c2)CC(C)(C)N1, which Potency is on record?
Answer: active: 8.91 µM

Question: Which Potency does the source give for CCOc1ccc(Nc2nc(C)c(NC(=O)c3cccc(F)c3)c(Nc3ccc(OCC)cc3)n2)cc1 here?
Answer: inconclusive: 35.5 µM [activator, single point]

Question: For CCCc1ccc(NC(=O)C2CCCN(c3cnccn3)C2)cc1 (centres undefined), which Potency is on record?
Answer: inconclusive: 10 µM [activator, single point]

Question: For CCN(CC)S(=O)(=O)c1cc(C)c(C)cc1OCC(=O)NC1CCCC1, which Potency is on record?
Answer: inconclusive: 39.8 µM [inhibitor, partial curve, poor fit]

Question: With O=C(COc1ccccc1F)NC1CCN(Cc2ccccc2)CC1 as the compound, how does the “activity change, negative = inhibition” value read?
Answer: inactive: -0.551%

Question: Which Potency does the source give for CCCCOC(=O)C[N+](C)(C)CCOC1CC2CCC1(C)C2(C)C (centres undefined) here?
Answer: inconclusive: 10 µM [inhibitor, partial curve, poor fit]

Question: Which Potency does the source give for CCOc1ccc(S(=O)(=O)Nc2cc(Cl)ccc2O)cc1 here?
Answer: inconclusive: 7.08 µM [inhibitor, full curve, poor fit]

Question: With CC(C)(C)c1ccc(CSc2nc(N)cc(=O)[nH]2)cc1 as the compound, how does the Potency read?
Answer: inconclusive: 3.16 µM [inhibitor, partial curve, poor fit]

Question: For CC(=O)c1ccc(NC(=O)CC2Nc3cc(C)c(C)cc3NC2=O)cc1 (centres undefined), which Potency is on record?
Answer: inconclusive: 6.31 µM [inhibitor, single point]

Question: With O=C(N/N=C1\CCc2ccccc21)c1ccc(O)cc1 as the compound, how does the “activity change, negative = inhibition” value read?
Answer: inactive: -22.5%

Question: Which “activity change, negative = inhibition” value does the source give for CCc1ccc(NC(=O)c2sccc2-n2cccc2)cc1 here?
Answer: inactive: 4.09%

Question: With O=C(NC(NC(=S)Nc1ccccc1Cl)C(Cl)(Cl)Cl)c1cccc(Cl)c1 (centres undefined) as the compound, how does the Potency read?
Answer: inconclusive: 0.1 µM [inhibitor, full curve, poor fit]

Question: Which Potency does the source give for Cc1cccc(N2CCN(CC(=O)Nc3nccs3)CC2)c1C here?
Answer: inconclusive: 9.2 µM [inhibitor, partial curve, poor fit]

Question: Which Potency does the source give for CN1CCN(C(c2ccc(C(F)(F)F)cc2)c2ccc3cccnc3c2O)CC1 (centres undefined) here?
Answer: inconclusive: 35.5 µM [inhibitor, single point]

Question: Which Potency does the source give for COc1ccc(S(=O)(=O)NC2CCCCC2)c(C)c1C here?
Answer: inconclusive: 0.447 µM [inhibitor, full curve, poor fit]

Question: With Cn1c(C(=O)NCCc2ccccc2)cc2sc(Cl)cc21 as the compound, how does the Potency read?
Answer: inconclusive: 0.562 µM [activator, partial curve, poor fit]

Question: For O=[N+]([O-])c1ccc(NC(=S)N2CCN(c3ccccc3)CC2)cc1, which “activity change, negative = inhibition” value is on record?
Answer: inactive: 5.3%

Question: Which Potency does the source give for Cc1ccc(S(=O)(=O)Nc2ccccc2CNc2ncc(Br)cc2Br)cc1 here?
Answer: inconclusive: 20.6 µM [inhibitor, single point]

Question: With O=C(NCc1ccc2c(c1)OCO2)C1CCCCC1 as the compound, how does the “activity change, negative = inhibition” value read?
Answer: inactive: -2.76%

Question: With CCOc1cc(/C=N/N=C2/NC(=O)C(CC(=O)O)S2)ccc1OCc1ccc(Cl)cc1 (centres undefined) as the compound, how does the Potency read?
Answer: inconclusive: 6.31 µM [activator, single point]

Question: For CCc1ccc(C2C(C(=O)Nc3ccccc3OC)=C(C)Nc3nc(SCc4ccccc4)nn32)cc1 (centres undefined), which “activity change, negative = inhibition” value is on record?
Answer: inactive: -4.47% [at 46.1 µM]

Question: For COc1ccc(CN(C)C(=O)COC(=O)c2c(-c3ccccc3Cl)noc2C)cc1, which Potency is on record?
Answer: inconclusive: 17.8 µM [inhibitor, single point]

Question: For Cc1ccc(OCCNC(=O)/C=C/c2ccccc2)cc1C, which “activity change, negative = inhibition” value is on record?
Answer: inactive: -3.95%

Question: With CC(=O)Nc1ccccc1OCc1nnc(-c2ccc(Cl)cc2)o1 as the compound, how does the Potency read?
Answer: inconclusive: 2 µM [activator, full curve]

Question: With CC(NC(=S)Nc1ccc(Cl)cc1)C(c1ccccc1)N1CCOCC1 (centres undefined) as the compound, how does the “activity change, negative = inhibition” value read?
Answer: inactive: -42.7%

Question: With COc1cc(NC(=O)Cn2ccc3ccccc3c2=O)cc(OC)c1OC as the compound, how does the “activity change, negative = inhibition” value read?
Answer: inactive: 6.51% [at 46.1 µM]

Question: With Cc1ccnc2nc(C(=O)Nc3ccc(N4CCOCC4)cc3)nn12 as the compound, how does the “activity change, negative = inhibition” value read?
Answer: inactive: 11.6%

Question: With CN1CCN(c2cc(-c3ccccc3)nc3cc(-c4ccc(F)cc4)nn23)CC1 as the compound, how does the Potency read?
Answer: inconclusive: 35.5 µM [inhibitor, single point]

Question: For O=C(c1ccc(N2CCOCC2)nc1)N1CCOCC1, which “activity change, negative = inhibition” value is on record?
Answer: inactive: 29.2%

Question: Which Potency does the source give for Cc1ccc(NC(=O)COC(=O)c2ccc([N+](=O)[O-])o2)cc1S(=O)(=O)N1CCCCC1 here?
Answer: inconclusive: 6.31 µM [activator, single point]

Question: For Cc1ccc(C)c(/C=N/Nc2nc3ccccc3c(=O)n2O)c1, which “activity change, negative = inhibition” value is on record?
Answer: inactive: -22.5%

Question: With CCN(CC)CCN(CC)Cc1ccccc1Br as the compound, how does the Potency read?
Answer: inconclusive: 29.1 µM [inhibitor, single point]
